Assay results as given in PMC8134040.

The chains behind the UniProt entries cited, without tags or fusion partners. Residues count along the entry.
UniProt P29317, residues 24-976: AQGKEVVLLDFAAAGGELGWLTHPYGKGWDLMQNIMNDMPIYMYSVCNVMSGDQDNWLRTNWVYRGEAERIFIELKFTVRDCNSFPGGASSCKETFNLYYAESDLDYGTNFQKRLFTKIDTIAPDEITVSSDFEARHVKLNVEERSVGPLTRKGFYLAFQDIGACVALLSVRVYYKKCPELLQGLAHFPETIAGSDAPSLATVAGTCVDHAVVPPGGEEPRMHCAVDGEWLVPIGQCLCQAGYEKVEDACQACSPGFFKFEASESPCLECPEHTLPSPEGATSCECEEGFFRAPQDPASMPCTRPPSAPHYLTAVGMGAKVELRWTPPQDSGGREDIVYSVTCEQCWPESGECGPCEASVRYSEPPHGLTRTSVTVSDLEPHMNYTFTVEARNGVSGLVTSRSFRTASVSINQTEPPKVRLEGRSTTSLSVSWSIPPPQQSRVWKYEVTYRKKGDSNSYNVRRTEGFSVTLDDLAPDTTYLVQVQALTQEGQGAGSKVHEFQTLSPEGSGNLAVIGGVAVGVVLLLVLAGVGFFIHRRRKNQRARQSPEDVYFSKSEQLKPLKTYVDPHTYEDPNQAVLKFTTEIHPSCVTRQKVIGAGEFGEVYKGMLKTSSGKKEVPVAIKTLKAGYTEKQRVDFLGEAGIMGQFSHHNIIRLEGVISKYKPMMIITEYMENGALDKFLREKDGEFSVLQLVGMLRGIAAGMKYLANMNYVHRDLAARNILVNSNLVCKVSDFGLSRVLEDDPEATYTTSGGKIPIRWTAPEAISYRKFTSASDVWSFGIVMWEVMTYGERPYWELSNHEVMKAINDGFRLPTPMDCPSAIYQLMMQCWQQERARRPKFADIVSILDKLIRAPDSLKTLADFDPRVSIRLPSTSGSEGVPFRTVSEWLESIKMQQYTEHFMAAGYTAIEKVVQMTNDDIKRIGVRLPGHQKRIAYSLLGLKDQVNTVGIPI
UniProt P07947: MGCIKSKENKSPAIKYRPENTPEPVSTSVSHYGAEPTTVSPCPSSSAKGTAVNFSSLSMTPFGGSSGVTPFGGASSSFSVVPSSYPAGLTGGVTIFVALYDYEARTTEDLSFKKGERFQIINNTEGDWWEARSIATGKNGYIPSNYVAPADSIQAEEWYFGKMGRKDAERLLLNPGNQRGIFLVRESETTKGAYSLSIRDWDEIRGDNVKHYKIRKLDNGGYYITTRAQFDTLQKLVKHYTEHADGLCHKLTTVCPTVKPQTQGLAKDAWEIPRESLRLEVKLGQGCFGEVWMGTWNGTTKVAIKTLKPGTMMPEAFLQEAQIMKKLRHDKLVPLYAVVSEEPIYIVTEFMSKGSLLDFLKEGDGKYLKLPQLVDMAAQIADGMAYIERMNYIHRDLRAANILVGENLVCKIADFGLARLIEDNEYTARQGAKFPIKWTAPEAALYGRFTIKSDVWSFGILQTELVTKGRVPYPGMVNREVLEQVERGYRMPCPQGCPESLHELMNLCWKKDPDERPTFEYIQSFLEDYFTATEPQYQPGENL

Target: HA-EphA2 (erythropoietin-producing hepatocellular receptor A2) (UniProt P29317)
Assay: affinity purification with mass spectrometry; AGS cells transfected with control or HA-EphA2 plasmid for 48 h; IP with anti-HA antibody; the HA-EphA2-IP protein complex subjected to proteomic analysis

endogenous YES1 (YES Proto-Oncogene 1) (from UniProt P07947 1-543) (enzyme)
binding: binds

No constants are given. Whether binding was seen depends on the method and setting. In cells and extracts the contact can be indirect. A yes stands for co-enrichment or nearness to the bait. Other partners may have been found.
